# Laboratory results published in publication PMC8778314, “A New Series of Indeno[1,2-c]pyrazoles as EGFR TK Inhibitors for NSCLC Therapy” (Molecules, 2022).
# System: peripheral blood mononuclear cells (PBMCs)
# Assay: MTT cell viability assay, PBMCs
# Details: SI = IC50 for PBMCs/IC50 for K562 cells
row,Compound,SI
1,"COc1cc2c(cc1Cl)Cc1c-2nn(-c2ccc(Br)cc2)c1-c1ccc(N2CCCCC2)cc1 [Compound 4, 6-Chloro-7-methoxy-2-(4-bromophenyl)-3-[4-(piperidin-1-yl)phenyl]-2,4-dihydroindeno[1,2-c]pyrazole]",7.38
2,"COc1cc2c(cc1Cl)Cc1c-2nn(-c2ccc(C)cc2)c1-c1ccc(N2CCCCC2)cc1 [Compound 7, 6-Chloro-7-methoxy-2-(4-methylphenyl)-3-[4-(piperidin-1-yl)phenyl]-2,4-dihydroindeno[1,2-c]pyrazole]",> 36.23
